This passage reports binding results from publication PMC12406728.

Chains of the proteins cited; added tags and fusions are not shown. Residues count along the entry.
UniProt P21860, residues 20-1342: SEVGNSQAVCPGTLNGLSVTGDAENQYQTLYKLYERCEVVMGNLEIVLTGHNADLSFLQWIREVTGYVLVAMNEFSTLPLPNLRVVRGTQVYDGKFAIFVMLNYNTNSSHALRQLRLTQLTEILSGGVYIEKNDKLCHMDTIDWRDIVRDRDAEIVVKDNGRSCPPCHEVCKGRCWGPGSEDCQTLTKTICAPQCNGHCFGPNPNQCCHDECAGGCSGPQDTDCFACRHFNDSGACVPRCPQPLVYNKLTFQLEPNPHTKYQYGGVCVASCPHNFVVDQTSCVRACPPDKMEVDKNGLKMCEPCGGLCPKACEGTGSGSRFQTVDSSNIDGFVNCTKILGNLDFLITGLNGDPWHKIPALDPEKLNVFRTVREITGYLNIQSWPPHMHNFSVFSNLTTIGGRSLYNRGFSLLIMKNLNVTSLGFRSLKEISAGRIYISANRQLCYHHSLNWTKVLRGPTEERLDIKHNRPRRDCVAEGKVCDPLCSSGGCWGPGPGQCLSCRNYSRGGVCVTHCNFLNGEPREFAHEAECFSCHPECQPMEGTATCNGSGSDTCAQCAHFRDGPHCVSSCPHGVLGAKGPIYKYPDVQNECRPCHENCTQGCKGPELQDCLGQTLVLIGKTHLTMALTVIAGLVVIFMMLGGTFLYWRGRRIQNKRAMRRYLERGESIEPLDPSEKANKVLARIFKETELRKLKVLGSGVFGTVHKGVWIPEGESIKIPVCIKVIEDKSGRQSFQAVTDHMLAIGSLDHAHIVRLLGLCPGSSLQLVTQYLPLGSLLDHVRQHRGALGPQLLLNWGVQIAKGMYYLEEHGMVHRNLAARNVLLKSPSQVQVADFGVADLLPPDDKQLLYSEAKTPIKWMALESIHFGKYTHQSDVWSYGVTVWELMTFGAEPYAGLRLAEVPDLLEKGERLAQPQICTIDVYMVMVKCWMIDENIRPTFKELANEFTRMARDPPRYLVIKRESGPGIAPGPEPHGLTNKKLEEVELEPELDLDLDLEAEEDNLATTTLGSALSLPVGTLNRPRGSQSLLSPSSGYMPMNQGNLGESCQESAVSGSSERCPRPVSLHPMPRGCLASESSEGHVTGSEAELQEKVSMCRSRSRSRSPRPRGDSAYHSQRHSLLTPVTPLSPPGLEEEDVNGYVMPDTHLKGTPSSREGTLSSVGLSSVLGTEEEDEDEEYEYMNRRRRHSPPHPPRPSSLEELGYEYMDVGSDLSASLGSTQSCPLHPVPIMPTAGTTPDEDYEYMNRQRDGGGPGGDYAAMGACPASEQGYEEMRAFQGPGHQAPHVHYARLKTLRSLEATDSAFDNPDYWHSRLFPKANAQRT

No constants are given. Whether binding was seen depends on the method and setting. Binding seen in cells or lysates may run through a third protein. Some binding calls cover weakened binding; strength is not graded here. For some of these results: Where a sequence is shown, tags or fusion partners need not be part of it.

Assay [1] concerns the target HER3 (transfected, no tag named) (UniProt P21860). Briefly: proximity ligation; HEK293 cells transfected with HER3 and ASPN-FLAG; PLA with anti-ASPN and anti-HER3, confocal microscopy.
Assay [2] addresses human HER3-FLAG (transfected) (human) (UniProt P21860). Briefly: co-IP; HEK293 cells transfected with FLAG-tagged HER3 (or deletion mutant) and ASPN or empty vector; anti-FLAG beads; immunoblot for HER3, HER2, ASPN.
Assay [3] has the same target. Briefly: co-IP; LNCaP HER2-KO cells transfected with HER3-FLAG, ASPN, with or without HER2; anti-FLAG beads; immunoblot for HER3, HER2, ASPN. A general note: A western blot detects proteins with antibodies after separation by electrophoresis.
Assay [4] shares this target. Briefly: co-IP; LNCaP cells transfected with HER3-FLAG and ASPN or empty vector; anti-FLAG beads; immunoblot for HER3, HER2, ASPN.

B1: ASPN-FLAG (ligand, UniProt Q9BXN1 33-380)
chain: DMEDTDDDDDDDDDDDDDDEDNSLFPTREPRSHFFPFDLFPMCPFGCQCYSRVVHCSDLGLTSVPTNIPFDTRMLDLQNNKIKEIKENDFKGLTSLYGLILNNNKLTKIHPKAFLTTKKLRRLYLSHNQLSEIPLNLPKSLAELRIHENKVKKIQKDTFKGMNALHVLEMSANPLDNNGIEPGAFEGVTVFHIRIAEAKLTSVPKGLPPTLLELHLDYNKISTVELEDFKRYKELQRLGLGNNKITDIENGSLANIPRVREIHLENNKLKKIPSGLPELKYLQIIFLHSNSIARVGVNDFCPTVPKMKKSLYSAISLFNNPVKYWEMQPATFRCVLSRMSVQLGNFGM
Take B1: the binding entry in assay [1] is recorded as “binds”.

B2: human ASPN (transfected) (ligand, UniProt Q9BXN1 33-380)
chain: B1 chain
As to B2, the binding result in assay [2], in assay [3] and in assay [4] was “binds” in each case.
